Test results as given in paper PMC4170211.

Target: T1, Myc-Nde1 (mouse) (UniProt Q9CZA6)
T1 sequence: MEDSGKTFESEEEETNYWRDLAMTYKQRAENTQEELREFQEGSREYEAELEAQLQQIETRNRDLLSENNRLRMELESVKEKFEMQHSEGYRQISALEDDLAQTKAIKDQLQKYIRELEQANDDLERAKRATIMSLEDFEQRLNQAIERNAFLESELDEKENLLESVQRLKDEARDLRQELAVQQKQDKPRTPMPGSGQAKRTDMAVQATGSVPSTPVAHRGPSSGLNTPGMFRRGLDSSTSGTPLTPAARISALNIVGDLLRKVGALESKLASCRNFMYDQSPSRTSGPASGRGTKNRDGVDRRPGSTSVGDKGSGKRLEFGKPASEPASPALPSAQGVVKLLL
Experiment: co-IP; Myc-Nde1 transfected in 293T, immunoprecipitated by anti-myc 9E10 (mouse IgG as control), endogenous partners by immunoblotting; 25 mM HEPES, 150 mM NaCl, 10 mM NaF, 100 uM Na3VO4, 0.5% NP40, 10% glycerol, protease inhibitors, 1 mM ATP

- binding: binds
Substance: SMC1, endogenous (human (endogenous in 293T))

These are yes or no findings as the source states them, for the method shown. Binding seen in cells or lysates may run through a third protein. Binding calls can cover weak binding; strength is not graded here. Where a sequence is shown, tags or fusion partners need not be part of it.
